Measured values published in patent WO2021084104A1 (dated 2021).
Results are given in words; binding and its absence hold for the method and conditions named. Some entries that bind do so weakly or less than the wild type. Blank lines part the entries; values can stand above or below the binder they belong to.

Protein sequences, listed by entry. Tags and fused reporters are not part of them. Residues count along the entry.
UniProt P13500, residues 24-99: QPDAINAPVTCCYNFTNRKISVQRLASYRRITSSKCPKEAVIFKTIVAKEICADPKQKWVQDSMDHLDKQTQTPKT

Legend:
[1] = target: T1, recombinant CD72 (UniProt P21854); experiment: ELISA on recombinant CD72 (Fig. 13B)
T1 sequence (looked up): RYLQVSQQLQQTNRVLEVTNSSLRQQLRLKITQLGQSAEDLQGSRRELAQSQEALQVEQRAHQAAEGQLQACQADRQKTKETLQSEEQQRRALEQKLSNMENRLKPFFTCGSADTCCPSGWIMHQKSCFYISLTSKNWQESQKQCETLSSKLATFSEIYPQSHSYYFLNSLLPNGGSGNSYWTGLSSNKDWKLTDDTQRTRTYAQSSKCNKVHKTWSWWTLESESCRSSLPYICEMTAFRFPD

[2] = target: T1, recombinant CD72; experiment: ELISA on recombinant CD72 (Fig. 13A)
[3] = target: recombinant MCP-1 protein (UniProt P13500); experiment: ELISA on recombinant protein
[4] = target: recombinant MCP-1 protein (UniProt P13500); experiment: ELISA on recombinant MCP-1, HRP anti-human detection (Fig. 12)

binding [1]: binds
B1: VH-CD72-001-C07 (protein, not shown: small tags and cut ends)
VH: EVQLLESGGGLVQPGGSLRLSCAASGFTFSSYTMDWVRQAPGKGLEWVAVISSDGTNEYYADSVKGRSTISRDNSKNTLYLQMNSLRAEDTAVYYCARDRGYYFDYWGQGTLVTVSS

binding [2]: binds
B2: VH-CD72-002-F04 (protein, not shown: small tags and cut ends)
VH: EVQLLESGGGLVQPGGSLRLSCAASGFTFRSYAMTWVRQAPGKGLEWVANIKQDGSREYYVDSVKARFTISRDNSKNTLYLQMNSLRAEDTAVYYCAKGGNFAFDYWGQGTLVTVSS

binding [3]: binds
binding [4]: binds
B3: tetra-VH-IgG #22 (VH-CH1=MCP1#6, VH-CL=41BB#4) (bispecific antibody, V domains shown, not shown: a dimerising Fc or GST)
V domain 1: EVQLLESGGGLVQPGGSLRLSCAASGFTFGSYWMHWVRQAPGKGLEWVASINRGSSQIYYADSVKGRFTISRDNSKNTLYLQMNSLRAEDTAVYYCARLMDGGSYYFDYWGQGTLVTVSS
V domain 2: EVQLLESGGGLVQPGGSLRLSCAASGFTFGDYAMSWFRQAPGKGLEWVAVLSYDGSNTDYADSVKGRFTISRDNSKNTLYLQMNSLRAEDTAVYYCAKGPLILAAGNYWGQGTLVTVSS

binding [3]: binds
binding [4]: binds
B4: tetra-VH-IgG #23 (VH-CH1=MCP1#6, VH-CL=CD40#5) (bispecific antibody, V domains shown, not shown: a dimerising Fc or GST)
V domain 1: B3 V domain 1
V domain 2: EVQLLESGGGLVQPGGSLRLSCAASGFTFSSYTMDWVRQAPGKGLEWVSSISESGDTTDYADSVKGRFTISRDNSKNTLYLQMNSLRAEDTAVYYCARCSGGSCYSVNWGQGTLVTVSS

binding [3]: binds
binding [4]: binds
B5: tetra-VH-IgG #24 (VH-CH1=MCP1#6, VH-CL=OX40#2) (bispecific antibody, V domains shown, not shown: a dimerising Fc or GST)
V domain 1: B3 V domain 1
V domain 2: EVQLLESGGGLVQPGGSLRLSCAASGFTFSSYAMSWVRQAPGKGLEWVSGVSGGGGSTYYADSVRGRFTISRDNSKNTLYLQMNSLRAEDTAVYYCARGWDDINVWGQGTLVTVSS
